According to ChEMBL document CHEMBL4138198, “Synthesis of new 1-benzyl tetrahydropyridinylidene ammonium salts and their antimicrobial and anticellular activities” (Eur J Med Chem, 2018):

Tested on: Pseudomonas aeruginosa
Experiment: Antimicrobial activity against Pseudomonas aeruginosa ATCC 27853 assessed as zone of inhibition at 50 ug per disc after 24 hrs by disc diffusion assay
Assay type: functional

GENTAMICIN
inhibition zone (IZ): 18 mm
